# According to the supplement of paper PMC8728848:
# Some of the results follow.
# B1: SHCBP1-GST (Homo sapiens), Q8NEM2 (protein)
# chain: MADGSLTGGGLEAAAMAPERMGWAVEQELASLEKGLFQDEDSCSDCSYRDKPGSSLQSFMPEGKTFFPEIFQTNQLLFYERFRAYQDYILADCKASEVQEFTAEFLEKVLEPSGWRAVWHTNVFKVLVEITDVDFAALKAVVRLAEPYLCDSQVSTFTMECMKELLDLKEHRLPLQELWVVFDDSGVFDQTALAIEHVRFFYQNIWRSWDEEEEDEYDYFVRCVEPRLRLHYDILEDRVPSGLIVDYHNLLSQCEESYRKFLNLRSSLSNCNSDSEQENISMVEGLKLYSEMEQLKQKLKLIENPLLRYVFGYQKNSNIQAKGVRSSGQKITHVVSSTMMAGLLRSLLTDRLCQEPGEEEREIQFHSDPLSAINACFEGDTVIVCPGHYVVHGTFSIADSIELEGYGLPDDIVIEKRGKGDTFVDCTGADIKISGIKFVQHDAVEGILIVHRGKTTLENCVLQCETTGVTVRTSAEFLMKNSDLYGAKGAGIEIYPGSQCTLSDNGIHHCKEGILIKDFLDEHYDIPKISMVNNIIHNNEGYGVVLVKPTIFSDLQENAEDGTEENKALKIQTSGEPDVAERVDLEELIECATGKMELCARTDPSEQVEGNCEIVNELIAASTQKGQIKKKRLSELGITQADDNLMSQEMFVGIVGNQFKWNGKGSFGTFLF
# Experiments:
# Test in all cases: glycan array binding signal (z-score within array); higher = stronger binding
# Conditions in all cases: glycan notation: IUPAC condensed, linker removed
# [1] = target: Gal(b1-3)GlcNAc(b1-2)Man(a1-3)[Gal(b1-3)GlcNAc(b1-2)Man(a1-6)]Man(b1-4)GlcNAc(b1-4)GlcNAc
# In short: (§1)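 Negative Z-scores can be read as non-binding. The Z-score is calculated within each array and then averaged across arrays of one protein sequence at different concentrations or buffers and across linkers. Arrays, 3228 in all, were curated from the Consortium for Functional Glycomics database and kept only where the protein sequence was available.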
# [2] = target: Gal(b1-3)GlcNAc(b1-2)Man(a1-3)[Gal(b1-3)GlcNAc(b1-2)Man(a1-6)]Man(b1-4)GlcNAc(b1-4)[Fuc(a1-6)]GlcNAc
# In short: as §1
# [3] = target: Gal(b1-3)GlcNAc(b1-2)Man(a1-3)[GlcNAc(b1-4)][Gal(b1-3)GlcNAc(b1-2)Man(a1-6)]Man(b1-4)GlcNAc(b1-4)GlcNAc
# In short: as §1
# [4] = target: Gal(b1-3)GlcNAc(b1-2)[Gal(b1-3)GlcNAc(b1-6)]Man(a1-6)[Gal(b1-3)GlcNAc(b1-2)Man(a1-3)]Man(b1-4)GlcNAc(b1-4)GlcNAc
# In short: as §1
# [5] = target: Gal(b1-3)GlcNAc(b1-3)Gal(b1-3)GlcNAc
# In short: as §1
# [6] = target: Gal(b1-3)GlcNAc(b1-3)Gal(b1-4)Glc
# In short: as §1
# [7] = target: Gal(b1-3)GlcNAc(b1-3)Gal(b1-4)GlcNAc
# In short: as §1
# [8] = target: Gal(b1-3)GlcNAc(b1-3)Gal(b1-4)GlcNAc(b1-2)Man(a1-3)[Gal(b1-3)GlcNAc(b1-3)Gal(b1-4)GlcNAc(b1-2)Man(a1-6)]Man(b1-4)GlcNAc(b1-4)GlcNAc
# In short: as §1
# [9] = target: Gal(b1-3)GlcNAc(b1-3)Gal(b1-4)GlcNAc(b1-2)[Gal(b1-3)GlcNAc(b1-3)Gal(b1-4)GlcNAc(b1-6)]Man(a1-6)[Gal(b1-3)GlcNAc(b1-3)Gal(b1-4)GlcNAc(b1-2)Man(a1-3)]Man(b1-4)GlcNAc(b1-4)[Fuc(a1-6)]GlcNAc
# In short: as §1
# [10] = target: Gal(b1-3)GlcNAc(b1-3)Gal(b1-4)GlcNAc(b1-3)Gal(b1-4)GlcNAc(b1-2)[Gal(b1-3)GlcNAc(b1-3)Gal(b1-4)GlcNAc(b1-3)Gal(b1-4)GlcNAc(b1-6)]Man(a1-6)[Gal(b1-3)GlcNAc(b1-3)Gal(b1-4)GlcNAc(b1-3)Gal(b1-4)GlcNAc(b1-2)Man(a1-3)]Man(b1-4)GlcNAc(b1-4)[Fuc(a1-6)]GlcNAc
# In short: as §1
# [11] = target: Gal(b1-3)GlcNAc(b1-3)Gal(b1-4)GlcNAc(b1-6)[Gal(b1-3)GlcNAc(b1-3)]Gal(b1-4)Glc
# In short: as §1
# [12] = target: Gal(b1-3)GlcNAc(b1-3)Gal(b1-4)[Fuc(a1-3)]GlcNAc
# In short: as §1
# [13] = target: Gal(b1-3)GlcNAc(b1-3)Gal(b1-4)[Fuc(a1-3)]GlcNAc(b1-6)[Gal(b1-3)GlcNAc(b1-3)]Gal(b1-4)Glc
# In short: as §1
# [14] = target: Gal(b1-3)GlcNAc(b1-3)GalNAc
# In short: as §1
# [15] = target: Gal(b1-3)GlcNAc(b1-6)Gal(b1-4)GlcNAc
# In short: as §1
# [16] = target: Gal(b1-3)GlcNAc(b1-6)GalNAc
# In short: as §1
# [17] = target: Gal(b1-3)GlcNAc(b1-6)[Gal(b1-3)]GalNAc
# In short: as §1
# [18] = target: Gal(b1-3)GlcNAc6S
# In short: as §1
# [19] = target: Gal(b1-3)[Fuc(a1-4)]GlcNAc
# In short: as §1
# [20] = target: Gal(b1-3)[Fuc(a1-4)]GlcNAc(b1-2)Man
# In short: as §1
# [21] = target: Gal(b1-3)[Fuc(a1-4)]GlcNAc(b1-2)Man(a1-3)[Gal(b1-3)[Fuc(a1-4)]GlcNAc(b1-2)Man(a1-6)]Man(b1-4)GlcNAc(b1-4)[Fuc(a1-6)]GlcNAc
# In short: as §1
# [22] = target: Gal(b1-3)[Fuc(a1-4)]GlcNAc(b1-3)Gal(b1-3)[Fuc(a1-4)]GlcNAc
# In short: as §1
# [23] = target: Gal(b1-3)[Fuc(a1-4)]GlcNAc(b1-3)Gal(b1-4)[Fuc(a1-3)]GlcNAc
# In short: as §1
# [24] = target: Gal(b1-3)[Fuc(a1-4)]GlcNAc(b1-6)GalNAc
# In short: as §1
# [25] = target: Gal(b1-3)[GlcNAc(b1-6)]GalNAc
# In short: as §1
# [26] = target: Gal(b1-3)[Neu5Ac(a2-6)]GalNAc
# In short: as §1
# [27] = target: Gal(b1-3)[Neu5Ac(a2-6)]GlcNAc(b1-4)Gal(b1-4)Glc
# In short: as §1
# [28] = target: Gal(b1-3)[Neu5Ac(b2-6)]GalNAc
# In short: as §1
# [29] = target: Gal(b1-4)Gal
# In short: as §1
# [30] = target: Gal(b1-4)GalNAc(a1-3)[Fuc(a1-2)]Gal(b1-4)GlcNAc
# In short: as §1
binder,measurement,setting,value
B1,glycan array binding signal (z-score),[1],1.03
same,glycan array binding signal (z-score),[2],-0.384
same,glycan array binding signal (z-score),[3],2.98
same,glycan array binding signal (z-score),[4],0.295
same,glycan array binding signal (z-score),[5],-0.156
same,glycan array binding signal (z-score),[6],-0.306
same,glycan array binding signal (z-score),[7],-0.333
same,glycan array binding signal (z-score),[8],-0.029
same,glycan array binding signal (z-score),[9],0.698
same,glycan array binding signal (z-score),[10],3.45
same,glycan array binding signal (z-score),[11],-0.213
same,glycan array binding signal (z-score),[12],-0.464
same,glycan array binding signal (z-score),[13],0.731
same,glycan array binding signal (z-score),[14],0.539
same,glycan array binding signal (z-score),[15],-0.78
same,glycan array binding signal (z-score),[16],0.036
same,glycan array binding signal (z-score),[17],-0.122
same,glycan array binding signal (z-score),[18],-0.184
same,glycan array binding signal (z-score),[19],-0.321
same,glycan array binding signal (z-score),[20],-0.069
same,glycan array binding signal (z-score),[21],-0.03
same,glycan array binding signal (z-score),[22],-0.592
same,glycan array binding signal (z-score),[23],0.129
same,glycan array binding signal (z-score),[24],0.404
same,glycan array binding signal (z-score),[25],-0.463
same,glycan array binding signal (z-score),[26],-1.01
same,glycan array binding signal (z-score),[27],-0.056
same,glycan array binding signal (z-score),[28],-0.157
same,glycan array binding signal (z-score),[29],-0.879
same,glycan array binding signal (z-score),[30],-0.536

# A second format for some results above:
binder | measurement | setting | value
B1 | glycan array binding signal (z-score) | [3] | 2.98
same | glycan array binding signal (z-score) | [27] | -0.056
